Source: the supplement of paper PMC12024529
Where a name gives a salt, the structure may show the parent alone. This is one part of the list. Part of the spread comes from offsets between plates or batches.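 Wild-type or misfolding-prone missense mutant B-domain-deleted factor VIII, fused to Gaussia luciferase, is stably expressed in HEK293 lines. Each score is (mean triplicate-well luminescence minus DMSO mean) divided by DMSO standard deviation. Hits score at least 2; lower scores could stem from decreased secretion or poorer cell viability.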

Assays:
HEK293 WT BDD-FVIII-Gluc = assay: secreted FVIII-Gluc luciferase Z-score vs DMSO control; higher = more FVIII-Gluc secretion; conditions: 5 µM; 24 h
[1] = tested on: HEK293 p.N1941S BDD-FVIII-Gluc; assay: as above; conditions: 5 µM; 24 h

| Structure (SMILES) | secreted FVIII-Gluc luciferase Z-score (HEK293 WT BDD-FVIII-Gluc) | secreted FVIII-Gluc luciferase Z-score [1] |
| --- | --- | --- |
| COc1ccc(CN(CCN(C)C)c2ccccn2)cc1 [Pyrilamine Maleate] | inactive: -0.637 | inactive: 1.53 |
| CN1CCC(OC(c2ccccc2)c2ccccc2)CC1 [Diphenylpyraline HCl] | inactive: 0.256 | inactive: -1.59 |
| CC1(C)[C@H](C(=O)O)N2C(=O)C[C@H]2S1(=O)=O [Sulbactam sodium (Unasyn)] | inactive: 0.519 | inactive: -4.34 |
| Nc1cccc2c1CN(C1CCC(=O)NC1=O)C2=O (stereo unspecified) [Lenalidomide] | inactive: 1.78 | inactive: -0.0959 |
| Nc1c2ccccc2nc2ccccc12 [9-Aminoacridine] | inactive: 1.53 | active: 3.36 |
| CCCCNc1ccc(C(=O)OCCN(C)C)cc1 [Tetracaine hydrochloride (Pontocaine)] | inactive: 0.0497 | inactive: -1.33 |
| CCOC(=O)C(CCc1ccccc1)NC(C)C(=O)N1C(=O)N(C)CC1C(=O)O (stereo unspecified) [Imidapril (Tanatril) HCl] | inactive: 0.376 | inactive: -0.625 |
| COc1cc2nc(N3CCN(C(=O)C4COc5ccccc5O4)CC3)nc(N)c2cc1OC (stereo unspecified) [Doxazosin mesylate] | inactive: -5.51 | inactive: -0.423 |
| COC1=C(OC)C(=O)C(CCCCCCCCCCO)=C(C)C1=O [Idebenone] | inactive: -2.55 | inactive: -0.333 |
| CN(C)C(=O)C(CCN1CCC(O)(c2ccc(Cl)cc2)CC1)(c1ccccc1)c1ccccc1 [Loperamide hydrochloride] | inactive: -1.48 | inactive: -2.33 |
| Nc1ccc(S(N)(=O)=O)cc1 [Sulfanilamide] | active: 2.42 | inactive: -0.857 |
| Nc1nc(N)c2nc(-c3ccccc3)c(N)nc2n1 [triamterene] | inactive: 0.146 | inactive: -0.212 |
| O=C(NC[C@H]1CN(c2ccc(N3CCOCC3=O)cc2)C(=O)O1)c1ccc(Cl)s1 [Rivaroxaban (Xarelto)] | active: 3.52 | inactive: 0.733 |
| CC(C)NCC(O)c1ccc(NS(C)(=O)=O)cc1 (stereo unspecified) [Sotalol (Betapace)] | inactive: -0.351 | inactive: -0.812 |
| C[C@@H]1[C@H](O)[C@@H](C)/C=C/C=C/C=C/C=C/C=C/C=C/C=C/[C@H](O[C@@H]2O[C@H](C)[C@@H](O)[C@H](N)[C@@H]2O)C[C@@H]2O[C@](O)(C[C@@H](O)C[C@@H](O)[C@H](O)CC[C@@H](O)C[C@@H](O)CC(=O)O[C@H]1C)C[C@H](O)[C@H]2C(=O)O [Amphotericin B] | inactive: 0.748 | inactive: -3.35 |
| NCCc1ccc(O)c(O)c1 [Dopamine hydrochloride (Inotropin)] | inactive: 1.61 | inactive: 0.536 |
| COC(=O)C1=CO[C@@H](O[C@@H]2O[C@H](CO)[C@@H](O)[C@H](O)[C@H]2O)[C@@H]2C(CO)=CC[C@H]12 [Geniposide] | inactive: -0.901 | inactive: -2.39 |
| C#Cc1cccc(Nc2ncnc3cc(OCCOC)c(OCCO)cc23)c1 [OSI-420 (Desmethyl Erlotinib)] | inactive: -2.88 | inactive: -1.99 |
| CCOC(=O)CC(=O)N1CCSC1COc1ccccc1OC (stereo unspecified) [Moguisteine] | inactive: 0.561 | inactive: 0.00787 |
| N[C@@H]1CN(c2c(F)cc3c(=O)c(C(=O)O)cn([C@@H]4C[C@@H]4F)c3c2Cl)CC12CC2 [Sitafloxacin Hydrate] | inactive: 0.627 | inactive: 0.521 |
| CC(=O)Oc1ccccc1C(=O)O [Aspirin (Acetylsalicylic acid)] | inactive: -1.19 | inactive: -1.65 |
| CC(C)(C(=O)O)c1ccc(C(O)CCCN2CCC(C(O)(c3ccccc3)c3ccccc3)CC2)cc1 (stereo unspecified) [Fexofenadine HCl] | inactive: -0.927 | inactive: -0.428 |
| O=C(O)c1cc(/N=N/c2ccc(O)c(C(=O)O)c2)ccc1O [olsalazine sodium] | inactive: -0.67 | inactive: -0.014 |
| CC[C@@]1(O)C(=O)OCc2c1cc1n(c2=O)Cc2cc3c(CN(C)C)c(O)ccc3nc2-1 [Topotecan HCl] | inactive: -3.07 | inactive: -13 |
| O=C(O)/C=C/c1ccc(Cn2ccnc2)cc1 [Ozagrel HCl] | inactive: -0.263 | inactive: -1.38 |
| CC(=O)[C@]1(O)Cc2c(O)c3c(c(O)c2[C@@H](O[C@H]2C[C@H](N)[C@H](O)[C@H](C)O2)C1)C(=O)c1ccccc1C3=O [Idarubicin HCl] | inactive: -1.92 | inactive: -10.9 |
| Cc1ccccc1C(=O)Nc1ccc(C(=O)N2CCCC(O)c3cc(Cl)ccc32)c(C)c1 (stereo unspecified) | inactive: -2.49 | inactive: -1.05 |

| Structure (SMILES) | secreted FVIII-Gluc luciferase Z-score (HEK293 WT BDD-FVIII-Gluc) | secreted FVIII-Gluc luciferase Z-score [1] |
| --- | --- | --- |
| Oc1ncnc2[nH]ncc12 [Allopurinol (Zyloprim)] | inactive: -1.76 | inactive: 0.928 |
| Oc1ccc(/C=C/c2cc(O)cc(O)c2)cc1 [Resveratrol] | inactive: -3.61 | inactive: -0.333 |
| NNC(=O)c1ccncc1.Nc1ccc(C(=O)O)c(O)c1 [Pasiniazid] | inactive: -1.57 | inactive: 1.41 |
| NC(=O)c1cccnc1 [Nicotinamide (Niacinamide)] | inactive: -3.01 | inactive: -0.499 |
| O=C1OC(CN2CCOCC2)CN1/N=C/c1ccc([N+](=O)[O-])o1 (stereo unspecified) [Furaltadone HCl] | inactive: 0.41 | inactive: 0.661 |
| Nc1ncn([C@@H]2O[C@H](CO)[C@@H](O)[C@H]2O)c(=O)n1 [Azacitidine (Vidaza)] | inactive: -5.49 | inactive: -1.31 |
| CN(CCOc1ccc(CC2SC(=O)NC2=O)cc1)c1ccccn1 (stereo unspecified) [Rosiglitazone maleate] | inactive: 1.38 | inactive: -1.55 |
| COc1ccc(CN2CCN(C(c3ccc(F)cc3)c3ccc(F)cc3)CC2)c(OC)c1OC [Lomerizine HCl] | inactive: -1.75 | inactive: -2.64 |
| CN1CCC(=C2c3ccccc3CCc3cccnc32)CC1 [Azatadine dimaleate] | inactive: -0.992 | inactive: -0.51 |
| COc1ccc(C[C@@H]2c3cc(OC)c(OC)cc3CC[N@+]2(C)CCC(=O)OCCCCCOC(=O)CC[N@@+]2(C)CCc3cc(OC)c(OC)cc3[C@H]2Cc2ccc(OC)c(OC)c2)cc1OC [Cisatracurium besylate (Nimbex)] | inactive: -0.267 | inactive: -0.279 |
| CCN(CC)CCNC(=O)c1c(C)[nH]c(/C=C2\C(=O)Nc3ccc(F)cc32)c1C [Sunitinib Malate (Sutent)] | inactive: -2.34 | inactive: -7.9 |
| C[C@H]1C[C@H]2[C@@H]3CCC4=CC(=O)C=C[C@]4(C)[C@@]3(F)[C@@H](O)C[C@]2(C)[C@@]1(O)C(=O)CO [Betamethasone (Celestone)] | active: 15.7 | active: 5.19 |
| c1ccc2c(c1)CCCC2C1=NCCN1 (stereo unspecified) [tetrahydrozoline hydrochloride] | inactive: -0.998 | inactive: -1.32 |
| COCCOC(=O)C1=C(C)NC(C)=C(C(=O)OC(C)C)C1c1cccc([N+](=O)[O-])c1 (stereo unspecified) [Nimodipine (Nimotop)] | inactive: -1.01 | inactive: -0.679 |
| CN1[C@@H]2CC[C@H]1C[C@@H](OC(=O)c1c[nH]c3ccccc13)C2 [Tropisetron] | inactive: -2.38 | inactive: -3.03 |
| CN(N=O)C(=O)NC1C(O)OC(CO)C(O)C1O (stereo unspecified) [Streptozotocin (Zanosar)] | inactive: -2 | inactive: -0.0647 |
| C[C@]12C=CC(=O)C=C1CC[C@@H]1[C@@H]2[C@@H](O)C[C@@]2(C)[C@H]1CC[C@]2(O)C(=O)CO [Prednisolone (Hydroretrocortine)] | active: 13.5 | active: 5.82 |
| CO[C@H]1C(=O)[C@]2(C)[C@@H](OC)C[C@H]3OC[C@@]3(OC(C)=O)[C@H]2[C@H](OC(=O)c2ccccc2)[C@]2(O)C[C@H](OC(=O)[C@H](O)[C@@H](NC(=O)OC(C)(C)C)c3ccccc3)C(C)=C1C2(C)C [Cabazitaxel (Jevtana)] | inactive: -10.9 | inactive: -2.92 |
| CCc1c2c(nc3ccc(OC(=O)N4CCC(N5CCCCC5)CC4)cc13)-c1cc3c(c(=O)n1C2)COC(=O)[C@]3(O)CC [Irinotecan] | inactive: -4.68 | inactive: -12.5 |
| COc1ccccc1OCC(O)CN1CCN(CC(=O)Nc2c(C)cccc2C)CC1 (stereo unspecified) [Ranolazine dihydrochloride] | inactive: -2.7 | inactive: 0.149 |
| C[C@H](CCC(=O)O)[C@H]1CC[C@H]2[C@@H]3CC[C@@H]4C[C@H](O)CC[C@]4(C)[C@H]3CC[C@]12C [Lithocholic acid] | inactive: -0.183 | inactive: 0.719 |
| Cc1onc(-c2ccccc2)c1-c1ccc(S(N)(=O)=O)cc1 [Bextra (valdecoxib)] | inactive: -1.28 | inactive: -0.361 |
| CCN(CC)C(=S)SSC(=S)N(CC)CC [Disulfiram (Antabuse)] | inactive: -0.814 | inactive: 0.075 |
| CCC1(c2ccccc2)C(=O)NCNC1=O [Primidone (Mysoline)] | inactive: -4.14 | inactive: -2.03 |
| CCCCc1nc(Cl)c(CO)n1Cc1ccc(-c2ccccc2-c2nnn[nH]2)cc1 [Losartan potassium] | inactive: -2.9 | inactive: -0.338 |
| CCN1CC(CCN2CCOCC2)C(c2ccccc2)(c2ccccc2)C1=O (stereo unspecified) [Doxapram HCl] | inactive: -0.0428 | inactive: 1.08 |

2 of the compounds above, with bars between the fields:
Structure (SMILES) | secreted FVIII-Gluc luciferase Z-score (HEK293 WT BDD-FVIII-Gluc) | secreted FVIII-Gluc luciferase Z-score [1]
c1ccc2c(c1)CCCC2C1=NCCN1 (stereo unspecified) [tetrahydrozoline hydrochloride] | inactive: -0.998 | inactive: -1.32
CCN1CC(CCN2CCOCC2)C(c2ccccc2)(c2ccccc2)C1=O (stereo unspecified) [Doxapram HCl] | inactive: -0.0428 | inactive: 1.08
